PubChem BioAssay AID686938 | Drosophila RNAi Screening Center | 2013

Test: 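Knock-downs reducing store-operated calcium influx in Drosophila cells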 (primary screen)
Cell system: Drosophila S2R+ cells
Reagent: long dsRNA against Drosophila genes, about 0.25 µg dsRNA per well, roughly 10,000 cells
Duration: 5 days of knock-down before the calcium assay
Treatment: thapsigargin (SERCA pump blocker) to empty calcium stores; entry signal taken 4 min after adding it
Detection: 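Per-well fluo-4 fluorescence in two replicates, unnormalised, measured in resting cells and 4 min after store depletion by the SERCA blocker thapsigargin; ratio of the two present in few wells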
Direction: calcium entry signal: higher = stronger calcium signal after store depletion; entry to resting ratio: higher = more calcium entry relative to resting level; resting calcium signal: higher = higher resting calcium signal
Active means: 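Called when the plate z-score of the entry-to-rest ratio, mean of duplicates, falls below −3; wells with low overall dye signal (Fmax z below −2) or more than five off-targets excluded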
Meaning of the calls: active = strongly reduced calcium entry; inactive = no strong reduction
The screen tested about 23,000 reagents; shown is an unselected part of those with a known target gene and a result. In the full data, 75 (0.33%) were called active. 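Raw plate signals without normalisation; calls rest on plate z-scores that were not deposited; ratio present for only 364 wells.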 A number with no mark means an inactive call. No sequences are given here. Not stated in the record: the dose of the treatment.

gene knocked down,DRSC id,"calcium entry signal, replicate 1 (fluorescence units)","calcium entry signal, replicate 2 (fluorescence units)",entry to resting ratio,"resting calcium signal, replicate 1 (fluorescence units)","resting calcium signal, replicate 2 (fluorescence units)"
aru (arouser),DRSC00802,2.60e7,3.03e7,,1.27e7,1.42e7
aru (arouser),DRSC22019,2.78e7,7.38e7,,1.29e7,3.12e7
Ccdc58 (Coiled-coil domain-containing 58),DRSC10218,3.57e7,4.19e7,,1.70e7,2.77e7
CheB42a (Chemosensory protein B 42a),DRSC22881,4.61e7,3.33e7,,2.30e7,1.43e7
CG33287,DRSC22929,2.96e7,2.70e7,,1.68e7,1.30e7
ppk25 (pickpocket 25),DRSC04973,3.40e7,3.51e7,,1.68e7,1.50e7
CG43106,DRSC04279,3.56e7,2.64e7,,1.77e7,1.35e7
roq (roquin),DRSC10227,3.84e7,4.79e7,,1.69e7,3.04e7
CG17191,DRSC15185,3.22e7,5.60e7,,1.65e7,2.36e7
Cpr49Ag (Cuticular protein 49Ag),DRSC07203,3.06e7,3.95e7,,1.58e7,1.84e7
CG14572,DRSC11733,3.39e7,6.01e7,,1.56e7,2.38e7
PXo (P[[i]]-sensitive XPR1 orthologue),DRSC09734,4.13e7,2.42e7,,2.63e7,1.11e7
CG31076,DRSC16017,3.13e7,5.11e7,,1.66e7,2.30e7
Bap60 (Brahma associated protein 60kD),DRSC19337,4.98e7,4.66e7,,3.02e7,2.96e7
Ugt303B3 (UDP-glycosyltransferase family 303 member B3),DRSC14199,3.21e7,4.14e7,,1.80e7,1.51e7
CG43125,DRSC13866,4.01e7,3.57e7,,1.85e7,1.89e7
mRpL45 (mitochondrial ribosomal protein L45),DRSC16146,5.07e7,4.95e7,,2.29e7,2.31e7
CG33281,DRSC00421,2.59e7,2.87e7,,1.34e7,1.47e7
CG11122,DRSC19382,1.85e7,2.09e7,,9.55e6,1.00e7
Lcp65Ac,DRSC11210,3.16e7,5.09e7,,1.47e7,2.08e7
SmB (Small ribonucleoprotein particle protein SmB),DRSC03437,2.10e7,,,1.81e7,
CG3526,DRSC17240,5.45e7,4.58e7,,2.61e7,1.98e7
CG3526,DRSC18636,6.93e7,5.84e7,2.1,3.27e7,2.57e7
Tomosyn,DRSC19365,4.19e7,4.34e7,,2.12e7,2.13e7
Tomosyn,DRSC19692,3.11e7,4.56e7,,1.64e7,2.25e7
Tomosyn,DRSC19782,4.12e7,3.95e7,,1.81e7,1.76e7
Tomosyn,DRSC19842,3.09e7,4.83e7,,1.53e7,2.30e7
lace,DRSC03564,4.17e7,,,2.30e7,
CG17385,DRSC06664,2.28e7,3.16e7,,1.08e7,1.24e7
raskol,DRSC19202,2.87e7,4.56e7,,1.53e7,1.99e7
raskol,DRSC19731,2.54e7,3.07e7,,1.45e7,1.40e7
raskol,DRSC19964,3.13e7,2.74e7,,1.72e7,1.27e7
raskol,DRSC19967,2.17e7,2.19e7,,1.45e7,1.25e7
raskol,DRSC21788,4.65e7,3.89e7,,2.71e7,1.75e7
FAM21 (Family with sequence similarity 21),DRSC06623,3.68e7,3.86e7,,1.79e7,1.93e7
Cpr72Eb (Cuticular protein 72Eb),DRSC09870,4.05e7,4.54e7,,1.77e7,1.78e7
MtnA (Metallothionein A),DRSC21588,2.15e7,2.46e7,,1.16e7,1.18e7
CG43312,DRSC11559,3.32e7,2.97e7,,1.68e7,1.46e7
WDR79 (WD repeat domain 79),DRSC03159,5.45e7,,,2.49e7,
Sdr (Secreted decoy of InR),DRSC15517,4.03e7,4.63e7,,1.64e7,2.01e7
CG10000,DRSC14170,4.02e7,5.64e7,,1.98e7,2.41e7
CG4151,DRSC18351,2.50e7,3.73e7,,1.21e7,1.72e7
Ance-3,DRSC02648,4.30e7,2.88e7,,1.85e7,1.39e7
Ance-3,DRSC02649,5.31e7,3.76e7,,2.32e7,1.75e7
CG30496,DRSC06805,3.92e7,2.35e7,,1.65e7,1.19e7
Dna2 (DNA replication helicase/nuclease 2),DRSC18254,4.35e7,3.71e7,,1.85e7,1.67e7
CG3603,DRSC18317,5.10e7,6.36e7,2.2,2.32e7,2.53e7
CG31606,DRSC01012,3.51e7,4.60e7,,1.63e7,1.91e7
CG14377,DRSC14837,3.11e7,3.75e7,,1.53e7,6.48e7
CG6865,DRSC10732,2.40e7,5.12e7,,1.47e7,2.12e7
"FucT6 (alpha1,6-fucosyltransferase)",DRSC19848,3.04e7,3.64e7,,1.46e7,1.63e7
SmD2 (Small ribonucleoprotein particle protein SmD2),DRSC12536,2.31e7 (active),2.13e7,,1.57e7,1.33e7
Men-b (Malic enzyme b),DRSC16736,4.54e7,5.77e7,,2.32e7,2.56e7
eIF4E3 (eukaryotic translation initiation factor 4E3),DRSC10952,4.01e7,2.29e7,,2.71e7,9.74e6
Eip63F-1 (Ecdysone-induced protein 63F 1),DRSC08072,4.26e7,4.98e7,,2.44e7,2.28e7
Eip63F-1 (Ecdysone-induced protein 63F 1),DRSC08659,3.06e7,3.53e7,,1.52e7,1.40e7
Gr98b (Gustatory receptor 98b),DRSC21675,4.05e7,3.83e7,,2.29e7,1.76e7
CG31792,DRSC02604,3.85e7,4.08e7,,1.80e7,1.75e7
